# Literature values, collected in PMC3052287 (Psychopharmacology, 2010).
# By UniProt entry, the sequences of proteins in these tests, tags left out.
# UniProt P34969, whole entry: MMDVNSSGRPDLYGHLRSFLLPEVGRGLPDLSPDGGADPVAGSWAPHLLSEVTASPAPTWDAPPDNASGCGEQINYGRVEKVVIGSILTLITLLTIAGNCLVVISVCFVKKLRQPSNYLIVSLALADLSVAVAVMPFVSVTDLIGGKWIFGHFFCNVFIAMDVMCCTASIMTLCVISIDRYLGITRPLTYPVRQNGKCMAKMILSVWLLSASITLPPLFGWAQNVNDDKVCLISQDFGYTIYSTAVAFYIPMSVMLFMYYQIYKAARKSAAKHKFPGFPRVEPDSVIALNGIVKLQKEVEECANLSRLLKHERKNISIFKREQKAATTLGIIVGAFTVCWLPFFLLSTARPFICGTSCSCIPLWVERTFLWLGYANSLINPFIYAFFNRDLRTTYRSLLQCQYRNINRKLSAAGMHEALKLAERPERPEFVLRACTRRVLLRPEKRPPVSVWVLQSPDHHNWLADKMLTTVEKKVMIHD
# Target: h5-HT7 receptor (Homo sapiens, UniProt P34969)
# Settings: cited from earlier work
structure (smiles),measurement,value
CCN(CC)C(=O)N[C@H]1C=C2c3cccc4[nH]cc(c34)C[C@H]2N(C)C1 [lisuride],inactivation of the h5-HT7 receptor (loss of 5-HT-stimulated cAMP accumulation),inactivate the h5-HT7 receptor
